Amino acid sequences for entries named in this document (tags omitted). Residues count along the entry.
UniProt P47871, residues 26-477: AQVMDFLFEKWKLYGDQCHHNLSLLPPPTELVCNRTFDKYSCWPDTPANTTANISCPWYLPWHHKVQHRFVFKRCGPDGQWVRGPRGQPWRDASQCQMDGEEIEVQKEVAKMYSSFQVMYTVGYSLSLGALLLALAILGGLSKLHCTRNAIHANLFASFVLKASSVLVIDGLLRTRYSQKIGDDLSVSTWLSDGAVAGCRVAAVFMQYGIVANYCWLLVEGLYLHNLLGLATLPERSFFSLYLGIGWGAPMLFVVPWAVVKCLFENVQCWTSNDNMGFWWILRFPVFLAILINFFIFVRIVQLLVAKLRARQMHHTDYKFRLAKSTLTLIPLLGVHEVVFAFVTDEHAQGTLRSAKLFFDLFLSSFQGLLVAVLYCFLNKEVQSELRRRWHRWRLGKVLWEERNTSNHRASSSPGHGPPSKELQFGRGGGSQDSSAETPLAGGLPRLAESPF
UniProt A0A8C2MRH7: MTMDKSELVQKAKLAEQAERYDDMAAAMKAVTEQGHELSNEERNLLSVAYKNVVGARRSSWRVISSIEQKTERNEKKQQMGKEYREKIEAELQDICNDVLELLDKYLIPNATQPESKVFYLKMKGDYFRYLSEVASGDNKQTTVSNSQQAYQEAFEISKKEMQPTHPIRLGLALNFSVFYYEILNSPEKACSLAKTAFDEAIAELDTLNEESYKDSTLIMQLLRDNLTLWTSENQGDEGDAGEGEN
UniProt A0A8C2M4T3: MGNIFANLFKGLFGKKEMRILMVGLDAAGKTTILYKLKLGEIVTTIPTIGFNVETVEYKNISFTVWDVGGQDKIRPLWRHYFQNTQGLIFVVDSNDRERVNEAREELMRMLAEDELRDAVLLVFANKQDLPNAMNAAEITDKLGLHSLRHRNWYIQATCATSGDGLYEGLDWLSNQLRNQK
UniProt A0A061IL97: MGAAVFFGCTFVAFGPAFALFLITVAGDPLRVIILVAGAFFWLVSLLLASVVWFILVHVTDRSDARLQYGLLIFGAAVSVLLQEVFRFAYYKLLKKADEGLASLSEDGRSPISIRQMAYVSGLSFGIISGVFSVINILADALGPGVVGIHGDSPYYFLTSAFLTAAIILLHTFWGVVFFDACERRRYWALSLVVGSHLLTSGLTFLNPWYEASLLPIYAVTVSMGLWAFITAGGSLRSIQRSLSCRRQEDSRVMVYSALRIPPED
UniProt A0A8C2M508: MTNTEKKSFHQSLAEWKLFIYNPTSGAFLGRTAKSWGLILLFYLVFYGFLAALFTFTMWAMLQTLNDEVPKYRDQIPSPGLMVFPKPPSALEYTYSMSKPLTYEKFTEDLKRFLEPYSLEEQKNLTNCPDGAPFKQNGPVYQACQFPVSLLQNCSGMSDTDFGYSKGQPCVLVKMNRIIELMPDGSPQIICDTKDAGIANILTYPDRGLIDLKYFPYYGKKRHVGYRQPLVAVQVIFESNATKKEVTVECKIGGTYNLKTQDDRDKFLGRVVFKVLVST
UniProt A0A8C2LKN4: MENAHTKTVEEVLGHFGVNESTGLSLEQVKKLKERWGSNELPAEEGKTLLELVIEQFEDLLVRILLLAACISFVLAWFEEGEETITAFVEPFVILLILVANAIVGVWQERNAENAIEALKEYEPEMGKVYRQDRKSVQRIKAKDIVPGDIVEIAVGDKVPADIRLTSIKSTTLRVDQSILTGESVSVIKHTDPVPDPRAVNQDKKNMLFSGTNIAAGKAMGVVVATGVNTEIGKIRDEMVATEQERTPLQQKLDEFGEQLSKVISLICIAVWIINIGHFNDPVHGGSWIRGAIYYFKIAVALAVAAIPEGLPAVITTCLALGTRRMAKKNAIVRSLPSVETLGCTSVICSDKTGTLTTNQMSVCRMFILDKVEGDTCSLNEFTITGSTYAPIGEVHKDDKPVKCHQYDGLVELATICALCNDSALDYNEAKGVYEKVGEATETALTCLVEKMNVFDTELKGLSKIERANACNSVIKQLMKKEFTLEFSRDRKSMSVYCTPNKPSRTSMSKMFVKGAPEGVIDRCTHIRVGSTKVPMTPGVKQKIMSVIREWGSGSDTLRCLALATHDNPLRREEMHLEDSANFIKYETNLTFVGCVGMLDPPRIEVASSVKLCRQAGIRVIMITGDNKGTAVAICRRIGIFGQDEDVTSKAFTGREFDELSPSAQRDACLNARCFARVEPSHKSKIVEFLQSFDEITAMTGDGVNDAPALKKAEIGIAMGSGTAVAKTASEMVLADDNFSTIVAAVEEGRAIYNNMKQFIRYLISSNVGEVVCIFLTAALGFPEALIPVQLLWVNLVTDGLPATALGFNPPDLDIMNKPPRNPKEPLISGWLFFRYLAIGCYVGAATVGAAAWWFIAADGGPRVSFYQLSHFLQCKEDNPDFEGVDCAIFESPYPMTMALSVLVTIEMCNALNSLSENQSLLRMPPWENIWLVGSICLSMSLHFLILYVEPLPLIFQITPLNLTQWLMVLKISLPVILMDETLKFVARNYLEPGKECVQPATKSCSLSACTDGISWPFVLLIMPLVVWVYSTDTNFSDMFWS
UniProt A0A3L7HBS5: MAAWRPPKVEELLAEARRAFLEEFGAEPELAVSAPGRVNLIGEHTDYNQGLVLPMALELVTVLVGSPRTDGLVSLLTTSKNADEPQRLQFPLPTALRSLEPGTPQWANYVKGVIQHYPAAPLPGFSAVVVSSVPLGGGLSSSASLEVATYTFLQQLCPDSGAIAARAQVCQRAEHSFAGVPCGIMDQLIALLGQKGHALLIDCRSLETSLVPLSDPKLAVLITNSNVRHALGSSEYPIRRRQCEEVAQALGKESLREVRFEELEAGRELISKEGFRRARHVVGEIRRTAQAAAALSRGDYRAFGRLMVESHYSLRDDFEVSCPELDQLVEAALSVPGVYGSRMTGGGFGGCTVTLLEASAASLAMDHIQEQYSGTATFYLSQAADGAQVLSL
UniProt Q3HR13: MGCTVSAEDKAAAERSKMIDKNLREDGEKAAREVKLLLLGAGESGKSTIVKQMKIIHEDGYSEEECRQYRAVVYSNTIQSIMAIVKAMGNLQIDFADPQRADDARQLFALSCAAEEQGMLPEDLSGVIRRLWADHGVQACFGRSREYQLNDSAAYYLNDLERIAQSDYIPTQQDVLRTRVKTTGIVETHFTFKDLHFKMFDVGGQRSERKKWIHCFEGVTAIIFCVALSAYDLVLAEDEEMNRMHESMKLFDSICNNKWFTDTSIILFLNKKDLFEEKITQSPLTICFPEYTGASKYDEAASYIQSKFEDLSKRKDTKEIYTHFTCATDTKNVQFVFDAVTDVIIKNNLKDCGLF
UniProt A0A8C2ME99: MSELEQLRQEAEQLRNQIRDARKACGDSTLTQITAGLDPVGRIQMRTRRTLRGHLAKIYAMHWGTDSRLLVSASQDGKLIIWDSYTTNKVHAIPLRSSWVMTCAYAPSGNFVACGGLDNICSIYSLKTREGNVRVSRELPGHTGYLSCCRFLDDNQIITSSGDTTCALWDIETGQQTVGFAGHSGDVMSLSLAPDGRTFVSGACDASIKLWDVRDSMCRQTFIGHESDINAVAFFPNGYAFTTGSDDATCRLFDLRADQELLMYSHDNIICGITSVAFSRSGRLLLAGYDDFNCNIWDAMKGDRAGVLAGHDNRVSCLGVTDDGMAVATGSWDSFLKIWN
UniProt P35950, residues 22-862: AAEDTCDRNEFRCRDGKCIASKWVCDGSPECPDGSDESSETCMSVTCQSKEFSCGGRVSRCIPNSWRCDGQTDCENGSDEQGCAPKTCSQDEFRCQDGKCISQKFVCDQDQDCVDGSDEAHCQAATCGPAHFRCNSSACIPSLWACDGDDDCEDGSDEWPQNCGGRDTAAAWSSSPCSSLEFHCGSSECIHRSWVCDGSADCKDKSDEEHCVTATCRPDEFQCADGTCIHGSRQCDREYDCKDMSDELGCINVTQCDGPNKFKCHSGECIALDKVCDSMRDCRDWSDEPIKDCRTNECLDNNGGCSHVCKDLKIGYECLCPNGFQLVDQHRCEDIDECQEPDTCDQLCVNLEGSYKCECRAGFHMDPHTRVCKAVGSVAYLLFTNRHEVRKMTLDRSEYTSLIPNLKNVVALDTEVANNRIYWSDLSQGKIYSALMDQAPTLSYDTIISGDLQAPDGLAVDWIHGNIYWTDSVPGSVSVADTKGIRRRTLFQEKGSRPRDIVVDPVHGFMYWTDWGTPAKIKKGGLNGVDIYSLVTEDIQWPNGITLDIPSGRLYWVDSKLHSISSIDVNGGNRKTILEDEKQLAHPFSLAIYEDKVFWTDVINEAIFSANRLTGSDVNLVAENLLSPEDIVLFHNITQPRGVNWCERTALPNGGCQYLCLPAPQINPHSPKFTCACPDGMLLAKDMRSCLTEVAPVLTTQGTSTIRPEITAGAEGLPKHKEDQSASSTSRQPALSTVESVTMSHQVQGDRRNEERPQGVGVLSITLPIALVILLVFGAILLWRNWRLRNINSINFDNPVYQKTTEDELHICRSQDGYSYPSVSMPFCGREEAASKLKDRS
UniProt A0A8C2LCH3: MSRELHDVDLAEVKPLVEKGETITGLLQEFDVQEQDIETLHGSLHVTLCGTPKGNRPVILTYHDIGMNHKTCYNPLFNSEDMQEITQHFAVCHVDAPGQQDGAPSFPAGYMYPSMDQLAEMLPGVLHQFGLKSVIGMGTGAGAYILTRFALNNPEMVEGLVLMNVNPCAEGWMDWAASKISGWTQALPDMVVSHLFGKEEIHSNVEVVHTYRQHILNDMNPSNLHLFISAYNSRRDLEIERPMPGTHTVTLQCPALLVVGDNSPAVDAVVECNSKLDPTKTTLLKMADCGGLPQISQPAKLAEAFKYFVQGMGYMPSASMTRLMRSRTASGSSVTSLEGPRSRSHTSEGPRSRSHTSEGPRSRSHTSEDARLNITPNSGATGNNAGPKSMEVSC
UniProt A0A3L7H5N7: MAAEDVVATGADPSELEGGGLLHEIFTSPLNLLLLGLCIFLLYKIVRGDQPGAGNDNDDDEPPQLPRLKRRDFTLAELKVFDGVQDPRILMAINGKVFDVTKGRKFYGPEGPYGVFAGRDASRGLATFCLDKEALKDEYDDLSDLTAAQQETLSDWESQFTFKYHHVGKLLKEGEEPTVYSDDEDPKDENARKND
UniProt G3H3P1: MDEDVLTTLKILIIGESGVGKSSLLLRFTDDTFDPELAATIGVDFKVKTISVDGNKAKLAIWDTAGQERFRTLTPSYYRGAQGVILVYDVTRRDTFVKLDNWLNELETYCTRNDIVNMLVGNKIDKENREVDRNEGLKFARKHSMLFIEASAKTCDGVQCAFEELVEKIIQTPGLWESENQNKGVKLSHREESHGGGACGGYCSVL
UniProt G3HC29: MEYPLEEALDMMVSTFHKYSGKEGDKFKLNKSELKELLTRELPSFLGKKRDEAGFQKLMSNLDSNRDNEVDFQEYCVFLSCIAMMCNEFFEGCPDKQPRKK
UniProt Q07891: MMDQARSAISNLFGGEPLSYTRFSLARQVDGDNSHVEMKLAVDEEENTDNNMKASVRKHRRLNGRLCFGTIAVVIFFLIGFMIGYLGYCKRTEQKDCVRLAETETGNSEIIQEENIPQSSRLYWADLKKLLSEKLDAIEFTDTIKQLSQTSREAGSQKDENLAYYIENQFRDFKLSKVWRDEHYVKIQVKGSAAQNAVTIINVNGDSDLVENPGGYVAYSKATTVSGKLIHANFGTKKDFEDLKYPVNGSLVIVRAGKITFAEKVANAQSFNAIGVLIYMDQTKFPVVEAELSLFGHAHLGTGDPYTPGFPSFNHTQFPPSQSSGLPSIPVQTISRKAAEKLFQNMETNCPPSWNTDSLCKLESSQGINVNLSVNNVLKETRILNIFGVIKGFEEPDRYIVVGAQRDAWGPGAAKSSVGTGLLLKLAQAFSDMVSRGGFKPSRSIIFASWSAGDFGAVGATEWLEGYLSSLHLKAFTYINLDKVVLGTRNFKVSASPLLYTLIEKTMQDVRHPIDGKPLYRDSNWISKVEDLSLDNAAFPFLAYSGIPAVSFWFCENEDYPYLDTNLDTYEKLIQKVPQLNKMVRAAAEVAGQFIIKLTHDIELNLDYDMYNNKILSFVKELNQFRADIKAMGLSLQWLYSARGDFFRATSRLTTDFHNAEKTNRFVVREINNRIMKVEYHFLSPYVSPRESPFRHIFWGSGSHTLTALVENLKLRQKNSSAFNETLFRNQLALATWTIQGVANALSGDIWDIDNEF
UniProt P49020, residues 16-196: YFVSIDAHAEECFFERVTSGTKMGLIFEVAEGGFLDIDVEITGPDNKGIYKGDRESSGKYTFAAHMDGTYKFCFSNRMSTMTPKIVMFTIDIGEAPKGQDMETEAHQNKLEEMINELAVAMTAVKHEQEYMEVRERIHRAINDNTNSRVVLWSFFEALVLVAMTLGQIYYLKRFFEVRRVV
UniProt A0A3L7HJ29: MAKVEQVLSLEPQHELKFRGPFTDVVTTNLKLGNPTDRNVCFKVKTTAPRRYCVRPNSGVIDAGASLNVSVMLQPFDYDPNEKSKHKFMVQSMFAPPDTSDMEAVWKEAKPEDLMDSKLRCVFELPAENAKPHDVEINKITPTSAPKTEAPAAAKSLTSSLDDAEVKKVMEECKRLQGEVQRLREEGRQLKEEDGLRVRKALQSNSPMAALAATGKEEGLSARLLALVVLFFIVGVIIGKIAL

In PMC4468146:

Each substance was assayed against human glucagon receptor (GCGR), C-terminal Flag-tagged (human) (UniProt P47871) (assay: affinity purification with mass spectrometry; anti-Flag M2 affinity gel on lysates of CHO cells transfected with GCGR-Flag, with or without glucagon (10 nM, 5 minutes); lysis buffer 10% glycerol, 50 mM HEPES pH 7.4, 150 mM NaCl, 2 mM EDTA, 0.25% DDM; elution with ammonium hydroxide pH 11.0, trypsin, LC-MS/MS; three repeats; control cells without GCGR-Flag).

Substance | binding
14-3-3 protein beta, also known as tyrosine 3-monooxygenase/tryptophan 5-monooxygenase activation protein, beta (YWHAB) (from UniProt A0A8C2MRH7 1-246) | binds
ADP-ribosylation factor 1 (ARF1) (from UniProt A0A8C2M4T3 1-181) | binds
APH1A (from UniProt A0A061IL97 1-265) | binds
ATP1B3 (from UniProt A0A8C2M508 1-279) | binds
ATP2A2 (from UniProt A0A8C2LKN4 1-1042) | binds
GALK1 (from UniProt A0A3L7HBS5 1-392) | binds
GNAi2 (from UniProt Q3HR13 1-355) | binds
GNB2 (from UniProt A0A8C2ME99 1-340) | binds
LDLR (from UniProt P35950 22-862) (receptor) | binds
NDRG1 (from UniProt A0A8C2LCH3 1-394) | binds
PGRMC1 (from UniProt A0A3L7H5N7 1-195) | binds
RAB18 (from UniProt G3H3P1 1-206) | binds
S100A4 (from UniProt G3HC29 1-101) | binds
TFR1 (from UniProt Q07891 1-757) (receptor) | binds
TMED2 (from UniProt P49020 16-196) | binds
VAPB (from UniProt A0A3L7HJ29 1-243) | binds

These are yes or no findings as the source states them, for the method shown. Binding seen in cells or lysates may run through a third protein. A yes stands for co-enrichment or nearness to the bait. Other partners may have been found.
